Measured values published in the supplement of paper PMC6411743.
± gives the standard deviation of the averaged measurements. The list shows a part of the results, in another mix than the full data.

Sequences of proteins named here, by UniProt entry; tags and fusion partners are left off. A change or cut given only in a name is not applied to a line headed by its entry.
UniProt Q6PGP7, whole entry: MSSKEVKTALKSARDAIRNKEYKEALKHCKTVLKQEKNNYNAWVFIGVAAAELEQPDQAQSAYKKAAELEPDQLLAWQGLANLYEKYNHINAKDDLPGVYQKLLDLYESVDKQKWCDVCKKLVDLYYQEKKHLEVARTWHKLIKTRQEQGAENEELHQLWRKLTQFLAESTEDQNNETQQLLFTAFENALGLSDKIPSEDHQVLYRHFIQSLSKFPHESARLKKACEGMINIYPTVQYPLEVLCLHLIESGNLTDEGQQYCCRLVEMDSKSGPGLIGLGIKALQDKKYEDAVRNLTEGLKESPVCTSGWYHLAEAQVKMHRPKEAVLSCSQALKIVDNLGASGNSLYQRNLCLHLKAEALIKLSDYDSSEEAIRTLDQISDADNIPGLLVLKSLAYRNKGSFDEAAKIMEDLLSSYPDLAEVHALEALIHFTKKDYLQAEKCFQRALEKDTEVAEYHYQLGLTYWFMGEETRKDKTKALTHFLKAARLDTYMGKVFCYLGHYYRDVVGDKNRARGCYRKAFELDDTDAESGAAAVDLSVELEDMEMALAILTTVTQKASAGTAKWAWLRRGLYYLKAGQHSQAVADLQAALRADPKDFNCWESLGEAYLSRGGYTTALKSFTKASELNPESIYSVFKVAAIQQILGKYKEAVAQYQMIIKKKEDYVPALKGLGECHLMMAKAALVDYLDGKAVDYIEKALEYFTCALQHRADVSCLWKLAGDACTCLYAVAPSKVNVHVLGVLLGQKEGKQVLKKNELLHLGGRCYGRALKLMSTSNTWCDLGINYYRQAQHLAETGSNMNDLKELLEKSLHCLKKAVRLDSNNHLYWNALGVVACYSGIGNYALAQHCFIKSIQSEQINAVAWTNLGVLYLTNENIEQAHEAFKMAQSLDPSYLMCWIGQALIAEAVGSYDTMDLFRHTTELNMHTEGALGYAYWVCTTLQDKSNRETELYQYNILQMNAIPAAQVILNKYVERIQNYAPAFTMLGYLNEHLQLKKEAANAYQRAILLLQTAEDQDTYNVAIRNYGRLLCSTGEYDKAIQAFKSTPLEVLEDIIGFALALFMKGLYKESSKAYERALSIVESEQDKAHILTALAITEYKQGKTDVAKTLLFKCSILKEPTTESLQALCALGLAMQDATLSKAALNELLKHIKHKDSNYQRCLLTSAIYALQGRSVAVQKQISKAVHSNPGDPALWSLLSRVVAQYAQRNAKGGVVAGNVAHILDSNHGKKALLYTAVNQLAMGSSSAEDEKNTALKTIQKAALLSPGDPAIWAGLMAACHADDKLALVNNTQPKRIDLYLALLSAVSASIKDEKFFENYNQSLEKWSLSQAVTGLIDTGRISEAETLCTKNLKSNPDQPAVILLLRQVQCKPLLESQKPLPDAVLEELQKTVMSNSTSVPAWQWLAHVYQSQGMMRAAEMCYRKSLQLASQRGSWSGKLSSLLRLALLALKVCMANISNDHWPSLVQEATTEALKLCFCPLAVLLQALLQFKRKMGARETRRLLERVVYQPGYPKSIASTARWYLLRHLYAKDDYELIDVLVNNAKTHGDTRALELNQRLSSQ
UniProt Q6KC79: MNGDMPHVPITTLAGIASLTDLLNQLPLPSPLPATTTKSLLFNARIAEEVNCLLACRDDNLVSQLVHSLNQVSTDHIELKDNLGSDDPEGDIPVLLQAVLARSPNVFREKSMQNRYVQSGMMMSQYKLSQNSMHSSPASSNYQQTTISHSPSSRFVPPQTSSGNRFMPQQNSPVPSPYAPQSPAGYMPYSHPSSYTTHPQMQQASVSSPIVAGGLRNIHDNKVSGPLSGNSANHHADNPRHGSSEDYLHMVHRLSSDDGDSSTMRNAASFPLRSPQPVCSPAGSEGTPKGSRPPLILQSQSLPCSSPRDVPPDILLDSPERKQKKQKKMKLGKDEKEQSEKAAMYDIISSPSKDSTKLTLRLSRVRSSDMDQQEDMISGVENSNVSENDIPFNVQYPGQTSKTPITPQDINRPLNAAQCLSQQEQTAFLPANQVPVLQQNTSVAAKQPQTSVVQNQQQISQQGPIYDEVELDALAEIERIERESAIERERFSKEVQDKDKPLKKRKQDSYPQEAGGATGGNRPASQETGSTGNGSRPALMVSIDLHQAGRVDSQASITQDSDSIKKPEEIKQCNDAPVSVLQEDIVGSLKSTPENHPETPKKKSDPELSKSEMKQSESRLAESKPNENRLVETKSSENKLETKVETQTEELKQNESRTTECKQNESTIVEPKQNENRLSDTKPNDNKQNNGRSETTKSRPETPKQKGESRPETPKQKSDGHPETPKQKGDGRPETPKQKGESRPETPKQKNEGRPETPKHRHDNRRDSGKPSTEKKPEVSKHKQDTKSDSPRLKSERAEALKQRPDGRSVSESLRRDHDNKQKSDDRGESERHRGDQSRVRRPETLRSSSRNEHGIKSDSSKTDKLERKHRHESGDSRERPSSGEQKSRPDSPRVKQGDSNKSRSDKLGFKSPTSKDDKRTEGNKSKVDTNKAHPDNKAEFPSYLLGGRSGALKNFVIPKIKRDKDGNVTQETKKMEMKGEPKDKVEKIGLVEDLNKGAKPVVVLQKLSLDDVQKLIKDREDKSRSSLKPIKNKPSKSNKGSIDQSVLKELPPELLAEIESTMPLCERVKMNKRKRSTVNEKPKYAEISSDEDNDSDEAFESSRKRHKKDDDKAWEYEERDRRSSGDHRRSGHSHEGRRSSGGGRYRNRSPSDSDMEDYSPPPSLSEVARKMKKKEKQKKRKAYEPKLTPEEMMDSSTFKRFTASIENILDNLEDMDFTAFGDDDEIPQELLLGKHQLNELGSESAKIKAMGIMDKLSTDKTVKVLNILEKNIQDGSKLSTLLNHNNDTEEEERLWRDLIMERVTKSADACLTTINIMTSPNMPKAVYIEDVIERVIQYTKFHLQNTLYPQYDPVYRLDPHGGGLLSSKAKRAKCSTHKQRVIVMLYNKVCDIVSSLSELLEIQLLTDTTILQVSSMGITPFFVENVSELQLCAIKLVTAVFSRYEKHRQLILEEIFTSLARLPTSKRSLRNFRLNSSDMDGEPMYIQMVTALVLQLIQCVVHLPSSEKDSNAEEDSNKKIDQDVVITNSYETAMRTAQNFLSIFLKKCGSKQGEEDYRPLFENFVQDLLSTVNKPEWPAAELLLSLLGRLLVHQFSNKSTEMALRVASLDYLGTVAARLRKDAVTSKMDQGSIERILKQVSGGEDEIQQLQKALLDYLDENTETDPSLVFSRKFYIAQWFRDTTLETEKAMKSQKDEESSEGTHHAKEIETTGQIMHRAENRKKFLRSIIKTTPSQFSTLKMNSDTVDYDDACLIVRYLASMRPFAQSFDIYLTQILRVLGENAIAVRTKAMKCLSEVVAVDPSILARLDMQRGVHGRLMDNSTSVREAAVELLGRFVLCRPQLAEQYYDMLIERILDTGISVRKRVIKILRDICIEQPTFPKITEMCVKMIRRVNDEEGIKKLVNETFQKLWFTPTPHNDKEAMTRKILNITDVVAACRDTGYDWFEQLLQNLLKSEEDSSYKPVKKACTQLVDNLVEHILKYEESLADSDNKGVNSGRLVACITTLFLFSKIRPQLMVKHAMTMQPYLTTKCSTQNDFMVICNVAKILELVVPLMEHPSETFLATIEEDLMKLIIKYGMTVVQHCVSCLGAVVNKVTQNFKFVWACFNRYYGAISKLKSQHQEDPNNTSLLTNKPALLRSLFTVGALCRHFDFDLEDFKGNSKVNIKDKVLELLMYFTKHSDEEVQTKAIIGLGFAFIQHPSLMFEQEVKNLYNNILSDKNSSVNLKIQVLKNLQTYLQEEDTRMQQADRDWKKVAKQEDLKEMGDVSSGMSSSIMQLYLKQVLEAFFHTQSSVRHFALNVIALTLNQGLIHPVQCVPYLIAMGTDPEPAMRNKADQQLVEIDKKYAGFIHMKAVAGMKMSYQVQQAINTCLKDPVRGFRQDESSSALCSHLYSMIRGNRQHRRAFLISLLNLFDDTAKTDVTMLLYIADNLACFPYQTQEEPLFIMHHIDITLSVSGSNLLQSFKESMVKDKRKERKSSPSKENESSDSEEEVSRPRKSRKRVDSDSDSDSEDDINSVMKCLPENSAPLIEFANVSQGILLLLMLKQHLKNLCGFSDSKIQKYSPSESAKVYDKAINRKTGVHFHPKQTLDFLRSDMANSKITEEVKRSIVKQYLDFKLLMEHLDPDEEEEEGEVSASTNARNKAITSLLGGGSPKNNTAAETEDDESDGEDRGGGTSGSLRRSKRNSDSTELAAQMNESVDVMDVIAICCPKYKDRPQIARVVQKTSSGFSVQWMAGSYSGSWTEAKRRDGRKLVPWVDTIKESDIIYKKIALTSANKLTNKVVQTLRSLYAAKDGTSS
UniProt Q7L0J3, whole entry: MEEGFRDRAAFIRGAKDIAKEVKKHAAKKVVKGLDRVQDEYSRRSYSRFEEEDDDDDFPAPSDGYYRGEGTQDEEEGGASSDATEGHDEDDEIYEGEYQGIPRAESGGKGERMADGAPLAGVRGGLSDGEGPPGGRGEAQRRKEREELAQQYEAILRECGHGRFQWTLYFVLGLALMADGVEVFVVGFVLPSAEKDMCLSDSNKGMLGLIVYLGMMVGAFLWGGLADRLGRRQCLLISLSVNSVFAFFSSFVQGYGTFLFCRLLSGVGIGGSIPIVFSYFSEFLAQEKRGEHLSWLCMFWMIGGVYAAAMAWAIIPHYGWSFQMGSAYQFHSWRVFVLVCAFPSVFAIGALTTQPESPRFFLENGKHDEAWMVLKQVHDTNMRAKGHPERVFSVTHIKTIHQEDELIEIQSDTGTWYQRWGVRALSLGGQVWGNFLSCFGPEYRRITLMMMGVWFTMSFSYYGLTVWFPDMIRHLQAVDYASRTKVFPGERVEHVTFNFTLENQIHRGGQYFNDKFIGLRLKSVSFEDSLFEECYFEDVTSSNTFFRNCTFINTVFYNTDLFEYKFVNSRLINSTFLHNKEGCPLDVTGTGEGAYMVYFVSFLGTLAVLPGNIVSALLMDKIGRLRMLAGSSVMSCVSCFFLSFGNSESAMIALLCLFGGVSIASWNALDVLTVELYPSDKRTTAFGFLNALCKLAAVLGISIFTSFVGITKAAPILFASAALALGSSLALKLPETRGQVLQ
UniProt Q6P1K2: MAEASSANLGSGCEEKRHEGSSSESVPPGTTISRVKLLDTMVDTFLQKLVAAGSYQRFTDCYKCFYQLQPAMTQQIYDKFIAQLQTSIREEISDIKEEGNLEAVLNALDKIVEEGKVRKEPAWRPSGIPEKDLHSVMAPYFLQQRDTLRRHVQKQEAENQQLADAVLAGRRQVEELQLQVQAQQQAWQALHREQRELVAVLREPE
UniProt Q6N069: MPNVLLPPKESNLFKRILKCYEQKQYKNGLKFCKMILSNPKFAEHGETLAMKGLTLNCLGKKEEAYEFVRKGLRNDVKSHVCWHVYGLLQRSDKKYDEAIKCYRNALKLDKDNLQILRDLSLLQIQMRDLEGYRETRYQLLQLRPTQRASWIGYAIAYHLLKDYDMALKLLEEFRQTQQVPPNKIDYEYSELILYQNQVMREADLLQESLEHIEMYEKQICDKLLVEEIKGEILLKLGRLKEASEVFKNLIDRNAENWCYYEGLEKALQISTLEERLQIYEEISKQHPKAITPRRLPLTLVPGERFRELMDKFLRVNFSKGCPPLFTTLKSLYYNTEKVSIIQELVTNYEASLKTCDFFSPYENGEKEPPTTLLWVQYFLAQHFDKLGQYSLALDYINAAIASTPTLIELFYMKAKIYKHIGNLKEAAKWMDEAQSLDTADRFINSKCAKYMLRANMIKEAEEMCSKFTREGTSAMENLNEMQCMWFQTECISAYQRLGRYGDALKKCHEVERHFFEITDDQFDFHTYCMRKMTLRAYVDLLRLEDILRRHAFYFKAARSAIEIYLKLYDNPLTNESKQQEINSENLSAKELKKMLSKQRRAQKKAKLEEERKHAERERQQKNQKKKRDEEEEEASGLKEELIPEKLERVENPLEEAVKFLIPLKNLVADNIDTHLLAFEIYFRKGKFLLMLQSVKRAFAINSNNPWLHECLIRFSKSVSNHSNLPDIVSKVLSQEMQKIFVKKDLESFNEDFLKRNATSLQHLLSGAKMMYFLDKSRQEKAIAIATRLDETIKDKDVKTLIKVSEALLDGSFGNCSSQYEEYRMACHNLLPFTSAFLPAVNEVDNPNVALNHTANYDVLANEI
UniProt Q68D91: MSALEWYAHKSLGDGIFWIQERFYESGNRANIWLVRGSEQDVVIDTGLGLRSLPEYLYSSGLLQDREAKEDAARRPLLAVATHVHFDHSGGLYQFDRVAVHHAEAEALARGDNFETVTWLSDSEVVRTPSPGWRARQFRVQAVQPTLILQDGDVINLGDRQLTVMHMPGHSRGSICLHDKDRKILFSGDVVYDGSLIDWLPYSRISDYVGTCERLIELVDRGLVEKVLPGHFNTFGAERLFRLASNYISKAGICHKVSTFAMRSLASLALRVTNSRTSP

Compound: Nc1ncnc2c1ncn2[C@@H]1O[C@H](COP(=O)(O)OP(=O)(O)NP(=O)(O)O)[C@@H](O)[C@H]1O [adenylyl imidodiphosphate]
Test: NP40-soluble protein abundance relative to vehicle (solubility fold change) (ratio); higher = more soluble protein in presence of AMP-PNP
How it was run: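 Values are fold changes against the detergent-processed vehicle, based on vsn-normalised intensities. Jurkat crude lysate was treated at eight concentrations from 0.1 to 10 mM (10 min at room temperature, then 3 min at 37 °C), solubilised with 0.8% NP40 and benzonase, ultracentrifuged and analysed by TMT-labelled LC-MS/MS over three independent experiments.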

Row | Target | NP40-soluble protein abundance (concentration: 1mM) | NP40-soluble protein abundance (concentration: 2mM) | NP40-soluble protein abundance (concentration: 4mM) | NP40-soluble protein abundance (concentration: 6mM) | NP40-soluble protein abundance (concentration: 8mM) | NP40-soluble protein abundance (concentration: 10mM)
1 | UniProt Q7Z591 and related entries | 0.9959 ± 0.0074 | 1 ± 0.012 | 0.9898 ± 0.0073 | 0.9748 ± 0.0074 | 0.975 ± 0.024 | 0.978 ± 0.03
2 | UniProt Q5VTB9 and related entries | 1.03 ± 0.018 | 1.03 ± 0.02 | 1.04 ± 0.037 | 1.04 ± 0.011 | 0.995 ± 0.028 | 1.047 ± 0.0066
3 | TAOK1 (UniProt Q7L7X3) | 1.03 ± 0.041 | 1.011 ± 0.009 | 1.03 ± 0.012 | 1.01 ± 0.018 | 1.02 ± 0.031 | 1.03 ± 0.027
4 | TTC37 (UniProt Q6PGP7) | 0.822 ± 0.084 | 0.793 ± 0.14 | 0.791 ± 0.11 | 0.768 ± 0.077 | 0.761 ± 0.078 | 0.76 ± 0.079
5 | UniProt Q7Z460 and related entries | 1.02 ± 0.013 | 1.07 ± 0.036 | 1.05 ± 0.025 | 1.02 ± 0.026 | 1.01 ± 0.018 | 1.06 ± 0.03
6 | UniProt Q7Z2Z2 | 1.02 ± 0.0058 | 0.965 ± 0.041 | 1.01 ± 0.018 | 0.992 ± 0.01 | 0.985 ± 0.012 | 0.966 ± 0.022
7 | TWF2 (UniProt Q6IBS0) | 1 ± 0.051 | 1.03 ± 0.034 | 0.976 ± 0.028 | 0.932 ± 0.014 | 0.931 ± 0.01 | 0.952 ± 0.053
8 | UniProt Q6P3S6 and related entries | 1.02 ± 0.018 | 1.1 ± 0.091 | 1.04 ± 0.036 | 1.02 ± 0.018 | 1.0352 ± 0.00026 | 1.08 ± 0.034
9 | UniProt Q6KC79 and related entries | 1.05 ± 0.026 | 1.13 ± 0.056 | 1.13 ± 0.025 | 1.13 ± 0.06 | 1.1 ± 0.068 | 1.17 ± 0.052
10 | UniProt Q7L0J3 and related entries | 1 ± 0.032 | 1.05 ± 0.072 | 1.03 ± 0.031 | 1.02 ± 0.025 | 1.03 ± 0.033 | 1.02 ± 0.028
11 | UniProt Q68E01 and related entries | 0.994 ± 0.036 | 1.016 ± 0.01 | 1.04 ± 0.073 | 1.02 ± 0.058 | 1.05 ± 0.076 | 1.05 ± 0.11
12 | PMF1 (UniProt Q6P1K2) | 0.963 ± 0.037 | 0.981 ± 0.06 | 0.938 ± 0.047 | 0.941 ± 0.018 | 0.933 ± 0.02 | 0.931 ± 0.059
13 | MICAL3 (UniProt Q7RTP6) | 0.992 ± 0.031 | 1.03 ± 0.036 | 1.01 ± 0.048 | 0.974 ± 0.026 | 0.974 ± 0.044 | 0.98 ± 0.059
14 | UniProt Q7Z6B0 and related entries | 1.03 ± 0.02 | 1.1 ± 0.088 | 1.04 ± 0.048 | 1.004 ± 0.0086 | 0.97 ± 0.044 | 0.994 ± 0.04
15 | UniProt Q7Z3B4 and related entries | 0.969 ± 0.054 | 0.9436 ± 0.0042 | 1 ± 0.064 | 1.07 ± 0.067 | 1.13 ± 0.078 | 1.09 ± 0.11
16 | NFXL1 (UniProt Q6ZNB6) | 1.02 ± 0.055 | 1.06 ± 0.031 | 1.05 ± 0.082 | 0.997 ± 0.042 | 1.03 ± 0.06 | 0.964 ± 0.035
17 | UniProt Q7L2E3-2 | 1.02 ± 0.08 | 1 ± 0.12 | 1.06 ± 0.096 | 1.05 ± 0.075 | 1.1 ± 0.1 | 1.1 ± 0.13
18 | UniProt Q6IAA8 and related entries | 1.02 ± 0.025 | 1.04 ± 0.028 | 1.04 ± 0.047 | 0.992 ± 0.051 | 0.975 ± 0.017 | 0.966 ± 0.035
19 | UniProt Q6N069 | 0.868 ± 0.046 | 0.811 ± 0.063 | 0.94 ± 0.042 | 0.966 ± 0.067 | 1.02 ± 0.066 | 0.902 ± 0.06
20 | RPL7L1 (UniProt Q6DKI1) | 0.987 ± 0.028 | 0.989 ± 0.01 | 0.994 ± 0.014 | 0.963 ± 0.045 | 0.896 ± 0.024 | 0.9879 ± 0.0017
21 | UniProt Q6NYC1 and related entries | 1 ± 0.031 | 0.991 ± 0.01 | 0.999 ± 0.011 | 1 ± 0.03 | 1.02 ± 0.033 | 1.02 ± 0.021
22 | MBLAC2 (UniProt Q68D91) | 0.981 ± 0.042 | 0.913 ± 0.065 | 0.973 ± 0.033 | 0.943 ± 0.053 | 0.988 ± 0.029 | 0.942 ± 0.049
23 | ATAD2 (UniProt Q6PL18) | 1.01 ± 0.013 | 0.992 ± 0.012 | 1 ± 0.012 | 1.01 ± 0.035 | 1.038 ± 0.0078 | 1.1 ± 0.045
24 | UniProt Q712K3 | 1.04 ± 0.051 | 1.09 ± 0.045 | 0.99 ± 0.052 | 0.992 ± 0.036 | 0.968 ± 0.04 | 1 ± 0.087
25 | UniProt Q6ZT12 and related entries | 1.06 ± 0.024 | 1.027 ± 0.0036 | 1.02 ± 0.031 | 0.9715 ± 0.0059 | 0.96 ± 0.02 | 0.9736 ± 0.005
26 | UniProt Q7L5N7 and related entries | 0.987 ± 0.031 | 0.966 ± 0.051 | 0.979 ± 0.037 | 0.99 ± 0.035 | 0.985 ± 0.028 | 1.01 ± 0.036
27 | FDX2 (UniProt Q6P4F2) | 0.982 ± 0.02 | 1.02 ± 0.025 | 0.97 ± 0.028 | 0.984 ± 0.029 | 0.987 ± 0.017 | 0.969 ± 0.013

Some of the entries so far, as a markdown table.

| Row | Target | NP40-soluble protein abundance (concentration: 1mM) | NP40-soluble protein abundance (concentration: 2mM) | NP40-soluble protein abundance (concentration: 4mM) | NP40-soluble protein abundance (concentration: 6mM) | NP40-soluble protein abundance (concentration: 8mM) | NP40-soluble protein abundance (concentration: 10mM) |
| --- | --- | --- | --- | --- | --- | --- | --- |
| 19 | UniProt Q6N069 | 0.868 ± 0.046 | 0.811 ± 0.063 | 0.94 ± 0.042 | 0.966 ± 0.067 | 1.02 ± 0.066 | 0.902 ± 0.06 |
| 26 | UniProt Q7L5N7 and related entries | 0.987 ± 0.031 | 0.966 ± 0.051 | 0.979 ± 0.037 | 0.99 ± 0.035 | 0.985 ± 0.028 | 1.01 ± 0.036 |
